Data source: PubChem BioAssay AID743454 (Peter MacCallum Cancer Centre, 2014)

Assay: 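Genes whose loss kills vorinostat-resistant colon cancer cells under vorinostat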 (primary screen)
Cells: human HCT116-VR colon cancer cells, selected for vorinostat resistance
Reagent: siRNA pool against human genes, 40 nM siRNA pool
Duration: vorinostat for 24 h, read-out about 72 h after transfection
Challenge: vorinostat at 2.5 µM final
Measurement: 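Two measures, CellTiter-Fluor viability and luminescent caspase 3/7 activity, each as fold change against same-plate mock wells, mean of duplicates, then screen-wide robust z-score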
Reading the numbers: viability robust z-score: higher = more viable cells than screen typical; caspase robust z-score: higher = more caspase 3/7 activity than screen typical
Hit rule: 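Hits are knock-downs in viability class RV1/RV2 or caspase class CA1/CA2, excluding ones that killed cells in the no-drug cell-count arm; hits then retested with single siRNAs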
In all, the deposit lists about 18,000 reagents; below is a part drawn at random. 450 of them (2.5%) were called active. 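Single biological run; no consistent viability z cut-off exists, so the class columns, not z-scores, define the calls.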 No sequences are given here.

no.	target gene	viability hit class	caspase hit class	viability robust z-score	caspase robust z-score	activity call
1	CADM2	no change	no change	1.12	-0.01	inactive
2	UVRAG	no change	no change	0	0.92	inactive
3	HES6	no change	no change	1.08	1.04	inactive
4	TCP11L2	no change	no change	-0.3	0.74	inactive
5	ZBTB25	no change	no change	0.91	0.68	inactive
6	APP	no change	no change	-0.2	0.76	inactive
7	HSBP1	no change	no change	-0.32	1.87	inactive
8	CTSW	no change	no change	-1.05	0.94	inactive
9	CDH17	no change	no change	2.18	-0.66	inactive
10	SERPING1	no change	no change	-0.05	0.67	inactive
11	TRUB2	no change	no change	-0.92	-0.66	inactive
12	RBM4B	no change	no change	-1.77	3.48	inactive
13	PPM1L	no change	no change	1.29	0.08	inactive
14	GGCX	no change	no change	0.74	0.95	inactive
15	AR	no change	no change	0.82	-0.12	inactive
16	C2orf66	no change	no change	-0.82	0.7	inactive
17	SPINK8	no change	no change	1.18	0.94	inactive
18	ZSCAN18	no change	no change	0.32	-0.4	inactive
19	KDM7A	no change	no change	-0.9	-0.76	inactive
20	SARS2	no change	no change	-0.35	1.34	inactive
21	DNAAF5	no change	no change	-0.26	0.02	inactive
22	OPTN	no change	no change	-0.28	2.34	inactive
23	MTHFD1L	no change	no change	1.59	-0.24	inactive

4 entries already listed, arranged by “viability robust z-score”, ascending:
target gene	viability hit class	caspase hit class	viability robust z-score	caspase robust z-score	activity call
RBM4B	no change	no change	-1.77	3.48	inactive
GGCX	no change	no change	0.74	0.95	inactive
AR	no change	no change	0.82	-0.12	inactive
PPM1L	no change	no change	1.29	0.08	inactive

Further records:
no.	target gene	viability hit class	caspase hit class	viability robust z-score	caspase robust z-score	activity call
24	OR8H3	no change	no change	-0.34	1.23	inactive
25	ARHGAP19	no change	no change	-1.94	1.63	inactive
26	SEC24A	no change	no change	0.74	-1	inactive
27	CHST10	no change	no change	0.93	-0.5	inactive
28	PRH2	no change	no change	0.54	2.44	inactive
29	BEST4	no change	no change	1.26	0.23	inactive
30	MAG	no change	no change	0.2	0.24	inactive
31	IZUMO1	no change	no change	-0.66	-0.11	inactive
32	POC1B	no change	no change	0.07	-0.5	inactive
33	PDCD2L	no change	no change	-0.88	-0.41	inactive
34	KCNG4	no change	no change	0.04	-0.08	inactive
35	TIMP2	no change	no change	0.28	0.06	inactive
36	ZNF721	no change	no change	-0.68	0.07	inactive
37	LAS1L	no change	no change	-0.78	0.15	inactive
38	OR11H6	no change	no change	-0.91	-0.2	inactive
39	ZC3H10	no change	no change	-0.34	3.38	inactive
